According to the supplement of paper PMC4604168 (melanoma cell lines):
The other results are listed elsewhere or left out. Repeats are few or missing, and single values can be far off.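 The apoptosis fraction was the count of cleaved-PARP antibody-stained nuclei relative to all DNA-stained nuclei, imaged in 1,536-well plates. Screening doses were set so most cells survived, and baseline and induced cleaved-PARP levels vary greatly across cell lines.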

The compounds below were run on CBRC034 (line from a melanoma biopsy) (assay: cleaved PARP positive nuclei fraction relative to DMSO control; melanoma cells; higher = more apoptosis). Conditions: library dose: low library concentration; 72 h.
With `CN(C)S(=O)(=O)c1ccc2c(c1)/C(=C/c1cc3c([nH]1)CCCC3)C(=O)N2` + COc1cc2ncnc(Nc3ccc(Oc4ccccc4)cc3)c2cc1OC [SrcI1] (first compound 0.4 µM, partner dose 2 µM) the “cleaved PARP positive nuclei fraction” value was 94.4%. For `NCC(=O)Nc1ccc(-n2nc(C(F)(F)F)cc2-c2ccc3c(ccc4ccccc43)c2)cc1` + Cn1cc(/C=C2\C(=O)Nc3cccnc32)c2ccccc21 [GW441756] (first compound 1 µM, partner dose 0.4 µM), the “cleaved PARP positive nuclei fraction” value was 44.9%. For `O=C(Nc1ccccc1)c1cc([N+](=O)[O-])ccc1Cl` + Oc1cc(-c2nc(-c3ccccc3)[nH]c2-c2ccncc2)ccc1Cl [L779450] (first compound 2 µM, partner dose 0.2 µM), the “cleaved PARP positive nuclei fraction” value was 124%. For `O=C1NC(=O)/C(=C/c2ccc(-c3ccc(F)cc3O)o2)S1` + c1cc(-c2cnn3cc(-c4ccc(OCCN5CCCCC5)cc4)cnc23)ccn1 [Dorsomorphin] (first compound 1 µM, partner dose 0.4 µM), the “cleaved PARP positive nuclei fraction” value was 42.5%. With `COC(=O)c1sccc1S(=O)(=O)Nc1ccc(Nc2ccccc2)cc1OC` + COc1ccc(COc2ccc(Cc3cnc(N)nc3N)cc2OC)cc1 [GW2580] (first compound 1 µM, partner dose 1 µM) the “cleaved PARP positive nuclei fraction” value was 87.8%. With `COc1cc2c(Oc3ccc4[nH]c(C)cc4c3F)ncnc2cc1OCCCN1CCCC1` [cediranib] + CCN(CC)CCCCNc1ncc2cc(-c3cc(OC)cc(OC)c3)c(NC(=O)NC(C)(C)C)nc2n1 [PD173074] (first compound 0.4 µM, partner dose 0.1 µM) the “cleaved PARP positive nuclei fraction” value was 79.4%. In the case of `O=C1NC(=O)/C(=C/c2ccc(-c3ccc(F)cc3O)o2)S1` + COc1cc(N2CCC(N3CCN(C)CC3)CC2)ccc1Nc1ncc(Cl)c(Nc2ccccc2S(=O)(=O)C(C)C)n1 [NVP-TAE684] (first compound 1 µM, partner dose 0.08 µM), the “cleaved PARP positive nuclei fraction” value is reported as 166%. With `O=C(O)c1ccc(-c2c[nH]c3ncc(-c4ccccc4)cc23)cc1C1CCCC1` + O=C(O)C(=O)Nc1sc2c(c1C(=O)O)CCNC2 [TCS401] (first compound 0.16 µM, partner dose 1.66667 µM) the “cleaved PARP positive nuclei fraction” value was 103%. For `CN(NC(=O)CC(=O)NN(C)C(=S)c1ccccc1)C(=S)c1ccccc1` + CCN(CC)CCCCNc1ncc2cc(-c3cc(OC)cc(OC)c3)c(NC(=O)NC(C)(C)C)nc2n1 [PD173074] (first compound 0.006 µM, partner dose 0.1 µM), the “cleaved PARP positive nuclei fraction” value was 241%. `NCC(=O)Nc1ccc(-n2nc(C(F)(F)F)cc2-c2ccc3c(ccc4ccccc43)c2)cc1` + Cc1cc([N+](=O)[O-])ccc1NS(=O)(=O)c1cc(Cl)ccc1Cl [FH535] (first compound 1 µM, partner dose 1 µM) was tested, and the “cleaved PARP positive nuclei fraction” value was 447%. For `COc1ccc(COc2ccc(Cc3cnc(N)nc3N)cc2OC)cc1` + O=S(=O)(c1ccccc1)N(CC(F)(F)F)c1ccc(C(O)(C(F)(F)F)C(F)(F)F)cc1 [T0901317] (first compound 1 µM, partner dose 1.4 µM), the “cleaved PARP positive nuclei fraction” value was 84.8%. In the case of `O=C(Nc1ccccc1)c1cc([N+](=O)[O-])ccc1Cl` + COc1ccc(COc2ccc(Cc3cnc(N)nc3N)cc2OC)cc1 [GW2580] (first compound 2 µM, partner dose 1 µM), the “cleaved PARP positive nuclei fraction” value is reported as 160%. For `NCC(=O)Nc1ccc(-n2nc(C(F)(F)F)cc2-c2ccc3c(ccc4ccccc43)c2)cc1` + COc1ccc(-c2ccc3c(N4CCOCC4)nc(N4C[C@@H](C)O[C@@H](C)C4)nc3n2)cc1CO [KU0063794] (first compound 1 µM, partner dose 0.02 µM), the “cleaved PARP positive nuclei fraction” value was 123%. `COc1cc2c(Oc3ccc4[nH]c(C)cc4c3F)ncnc2cc1OCCCN1CCCC1` [cediranib] + COc1ccc(-c2ccc3c(N4CCOCC4)nc(N4C[C@@H](C)O[C@@H](C)C4)nc3n2)cc1CO [KU0063794] (first compound 0.4 µM, partner dose 0.02 µM) was tested, and the “cleaved PARP positive nuclei fraction” value was 77.2%. `O=S(=O)(c1ccccc1)N(CC(F)(F)F)c1ccc(C(O)(C(F)(F)F)C(F)(F)F)cc1` + CC(C)CCN1c2nc(Nc3cc(F)c(O)c(F)c3)ncc2N(C)C(=O)C1C [BID1870] (first compound 1.4 µM, partner dose 0.2 µM) was tested, and the “cleaved PARP positive nuclei fraction” value was 73.1%. With `NCC(=O)Nc1ccc(-n2nc(C(F)(F)F)cc2-c2ccc3c(ccc4ccccc43)c2)cc1` + COc1cc2ncnc(Nc3ccc(Oc4ccccc4)cc3)c2cc1OC [SrcI1] (first compound 1 µM, partner dose 2 µM) the “cleaved PARP positive nuclei fraction” value was 92.5%. `NCC(=O)Nc1ccc(-n2nc(C(F)(F)F)cc2-c2ccc3c(ccc4ccccc43)c2)cc1` + O=C1NC(=O)/C(=C/c2ccc(-c3ccc(F)cc3O)o2)S1 [AS252424] (first compound 1 µM, partner dose 1 µM) was tested, and the “cleaved PARP positive nuclei fraction” value was 240%. In the case of `COc1cc2ncnc(Nc3ccc(Oc4ccccc4)cc3)c2cc1OC` + c1cc(-c2cnn3cc(-c4ccc(OCCN5CCCCC5)cc4)cnc23)ccn1 [Dorsomorphin] (first compound 2 µM, partner dose 0.4 µM), the “cleaved PARP positive nuclei fraction” value is reported as 72.1%. For `CCc1ccc(CCOc2ccc(CC3SC(=O)NC3=O)cc2)nc1` (stereo unspecified) [pioglitazone] + COC(=O)c1sccc1S(=O)(=O)Nc1ccc(Nc2ccccc2)cc1OC [GSK0660] (first compound 2 µM, partner dose 1 µM), the “cleaved PARP positive nuclei fraction” value was 67.7%. In the case of `O=C(Nc1ccccc1)c1cc([N+](=O)[O-])ccc1Cl` + COc1ccc2c(c1)CCC1C2CCC2(C)C(NCCCCCCN3C(=O)C=CC3=O)CCC12 [U73122] (first compound 2 µM, partner dose 0.4 µM), the “cleaved PARP positive nuclei fraction” value is reported as 144%. For `COc1cc2c(Oc3ccc4[nH]c(C)cc4c3F)ncnc2cc1OCCCN1CCCC1` [cediranib] + O=C1NC(=O)/C(=C/c2ccc(-c3ccc(F)cc3O)o2)S1 [AS252424] (first compound 0.4 µM, partner dose 1 µM), the “cleaved PARP positive nuclei fraction” value was 21.2%. `O=C(O)c1ccc(-c2c[nH]c3ncc(-c4ccccc4)cc23)cc1C1CCCC1` + CCc1ccc(CCOc2ccc(CC3SC(=O)NC3=O)cc2)nc1 [pioglitazone] (first compound 0.16 µM, partner dose 2 µM) was tested, and the “cleaved PARP positive nuclei fraction” value was 46.5%. In the case of `COc1cc2ncnc(Nc3ccc(Oc4ccccc4)cc3)c2cc1OC` + Oc1cc(-c2nc(-c3ccccc3)[nH]c2-c2ccncc2)ccc1Cl [L779450] (first compound 2 µM, partner dose 0.2 µM), the “cleaved PARP positive nuclei fraction” value is reported as 90.4%. `Oc1nc(-c2ccc(C(F)(F)F)cc2)nc2c1CSCC2` + O=c1cc(-c2cccc3c2Sc2ccccc2S3)oc(N2CCOCC2)c1 [KU55933] (first compound 2 µM, partner dose 1 µM) was tested, and the “cleaved PARP positive nuclei fraction” value was 163%. In the case of `COc1ccc(-c2ccc3c(N4CCOCC4)nc(N4C[C@@H](C)O[C@@H](C)C4)nc3n2)cc1CO` + O=S(=O)(c1ccccc1)N(CC(F)(F)F)c1ccc(C(O)(C(F)(F)F)C(F)(F)F)cc1 [T0901317] (first compound 0.02 µM, partner dose 1.4 µM), the “cleaved PARP positive nuclei fraction” value is reported as 46.9%. `N#Cc1c(O)c2c(-c3ccc(-c4ccccc4O)cc3)csc2[nH]c1=O` + Cn1cc(/C=C2\C(=O)Nc3cccnc32)c2ccccc21 [GW441756] (first compound 2 µM, partner dose 0.4 µM) was tested, and the “cleaved PARP positive nuclei fraction” value was 102%. With `NCC(=O)Nc1ccc(-n2nc(C(F)(F)F)cc2-c2ccc3c(ccc4ccccc43)c2)cc1` + O=C(O)C(=O)Nc1sc2c(c1C(=O)O)CCNC2 [TCS401] (first compound 1 µM, partner dose 1.66667 µM) the “cleaved PARP positive nuclei fraction” value was 79.3%. In the case of `NCC(=O)Nc1ccc(-n2nc(C(F)(F)F)cc2-c2ccc3c(ccc4ccccc43)c2)cc1` + CCc1ccc(CCOc2ccc(CC3SC(=O)NC3=O)cc2)nc1 [pioglitazone] (first compound 1 µM, partner dose 2 µM), the “cleaved PARP positive nuclei fraction” value is reported as 43%. `O=C(Nc1ccccc1)c1cc([N+](=O)[O-])ccc1Cl` + CC(C)CCN1c2nc(Nc3cc(F)c(O)c(F)c3)ncc2N(C)C(=O)C1C [BID1870] (first compound 2 µM, partner dose 0.2 µM) was tested, and the “cleaved PARP positive nuclei fraction” value was 301%. For `O=C(O)c1ccc(-c2c[nH]c3ncc(-c4ccccc4)cc23)cc1C1CCCC1` + Oc1cc(-c2nc(-c3ccccc3)[nH]c2-c2ccncc2)ccc1Cl [L779450] (first compound 0.16 µM, partner dose 0.2 µM), the “cleaved PARP positive nuclei fraction” value was 101%. In the case of `CN(C)S(=O)(=O)c1ccc2c(c1)/C(=C/c1cc3c([nH]1)CCCC3)C(=O)N2` + COc1ccc(COc2ccc(Cc3cnc(N)nc3N)cc2OC)cc1 [GW2580] (first compound 0.4 µM, partner dose 1 µM), the “cleaved PARP positive nuclei fraction” value is reported as 92.5%. `COc1ccc(COc2ccc(Cc3cnc(N)nc3N)cc2OC)cc1` + c1cc(-c2cnn3cc(-c4ccc(OCCN5CCCCC5)cc4)cnc23)ccn1 [Dorsomorphin] (first compound 1 µM, partner dose 0.4 µM) was tested, and the “cleaved PARP positive nuclei fraction” value was 106%. For `COc1ccc(-c2ccc3c(N4CCOCC4)nc(N4C[C@@H](C)O[C@@H](C)C4)nc3n2)cc1CO` + Oc1cc(-c2nc(-c3ccccc3)[nH]c2-c2ccncc2)ccc1Cl [L779450] (first compound 0.02 µM, partner dose 0.2 µM), the “cleaved PARP positive nuclei fraction” value was 181%. `CCN(CC)CCCCNc1ncc2cc(-c3cc(OC)cc(OC)c3)c(NC(=O)NC(C)(C)C)nc2n1` + Cc1cc([N+](=O)[O-])ccc1NS(=O)(=O)c1cc(Cl)ccc1Cl [FH535] (first compound 0.1 µM, partner dose 1 µM) was tested, and the “cleaved PARP positive nuclei fraction” value was 811%. `O=S(=O)(c1ccccc1)N(CC(F)(F)F)c1ccc(C(O)(C(F)(F)F)C(F)(F)F)cc1` + Cc1cc([N+](=O)[O-])ccc1NS(=O)(=O)c1cc(Cl)ccc1Cl [FH535] (first compound 1.4 µM, partner dose 1 µM) was tested, and the “cleaved PARP positive nuclei fraction” value was 247%. `COc1cc2ncnc(Nc3ccc(Oc4ccccc4)cc3)c2cc1OC` + O=C(O)C(=O)Nc1sc2c(c1C(=O)O)CCNC2 [TCS401] (first compound 2 µM, partner dose 1.66667 µM) was tested, and the “cleaved PARP positive nuclei fraction” value was 212%.
